{"source": "patent US20200277268A1", "about": "“PENTAFLUOROPHENYL SULFONAMIDE COMPOUNDS, COMPOSITIONS AND USES THEREOF” (DALRIADA THERAPEUTICS INC., priority 2017, published 2020)", "format_in_all_cases": "cell-based", "key": {"[1]": {"system": "U87MG", "assay": "Cell viability, glioblastoma U87MG", "conditions": "Homo sapiens, U-87 MG; glioblastoma cell line", "experimental": "(§1) The anti-cancer efficacy of exemplary compounds of the application were assessed in vitro against different cancer cell lines. Cell viability was examined following treatment at various concentrations of inhibitor (0.097656-50 μM) using a CellTiter-Blue® cell viability assay. 1×10^4 cells/well were plated in 96-well assay plates in culture medium. All cells were grown in DMEM, IMDM and RPMI-1640 supplemented with 10% fetal bovine serum (FBS). In some instances, FBS was removed for periods ranging from 16-24 hours, and re-introduced with test compound addition. After 24 hrs, test compounds and vehicle controls were added to appropriate wells such that the final volume was 100 μl in each well. The cells were cultured for the desired test exposure period (72 hours) at 37° C. and 5% CO2. The assay plates were removed from […] incubator and 20 μl/well of CellTiter-Blue® Reagent was added. The plates were incubated using standard cell culture conditions for 1-4 hours. Afterwards, the plates were shaken for 10 seconds and florescence was recorded at 560/590 nm using a Cytation 3 spectrophotometer. IC50 values were determined using non-linear regression analysis with GraphPad Prism 6.0 (GraphPad Software Inc.). […]"}, "[2]": {"system": "A-172", "assay": "Cell viability, glioblastoma A-172", "conditions": "Homo sapiens, glioblastoma cell line", "experimental": "as §1"}, "[3]": {"system": "U118MG", "assay": "Cell viability, glioblastoma U118MG", "conditions": "Homo sapiens, U-118-MG; glioblastoma cell line", "experimental": "as §1"}}}
{"smiles": "CC/C(=C(\\c1ccccc1)c1ccc(OCCN(C)C)cc1)c1ccccc1", "note": "[Tamoxifen, reference compound]", "values": [{"measurement": "IC50", "setting": "[1]", "value": 15.1, "unit": "µM"}, {"measurement": "IC50", "setting": "[2]", "value": 16.2, "unit": "µM"}, {"measurement": "IC50", "setting": "[3]", "value": 14, "unit": "µM"}]}
